The list is a part of this screen's results and no random one: it gathers tests that were run many times, whatever their T/C, doses with no T/C, and many T/C values between a quarter and a half above the control. Other doses and runs of a compound stand elsewhere. T/C gives the treated animals as a percentage of the vehicle group. Some entries give survivors of the animals treated and no T/C: the source files T/C as zero there, which appears to mark a toxic dose or a test without result, not a measured value. Some survivor counts are full or nearly so, which does not show that the dose was tolerated: survival well below the control is almost never listed, so the zero probably covers shortened survival too. Survivors were counted at the toxicity check, usually on the fifth day, unless a day is given; later deaths do not show. Schedules are NCI's codes, taken here to give the interval after Q, in days (D) or hours (H), and the number of doses after X. Some entries hold several experiments; the values are given in rising order. For survival time, the PubChem record calls one and a half times the control and up active, and a quarter to a half above the control has no call in these data; cut-offs in other NCI protocols can differ.
Tested on: P388 leukemia ip, CD2F1 mice, survival T/C
Assay: NCI In Vivo Anticancer Drug Screen. Data for tumor model P388 Leukemia (intraperitoneal) in CD2F1 (CDF1) mice
Details: T/C endpoint: median survival time, higher T/C = longer survival
[1] = dose: 12.5 mg/kg/injection, schedule: Q01DX009 (ip), vehicle: saline
[2] = dose: 50.0 mg/kg/injection, schedule: Q01DX009 (ip), vehicle: saline with Tween-80
[3] = dose: 200.0 mg/kg/injection, schedule: Q01DX009 (ip), vehicle: saline
[4] = dose: 200.0 mg/kg/injection, schedule: Q01DX005 (ip), vehicle: Klucel (hydroxypropylcellulose) (HPC)
[5] = dose: 100.0 mg/kg/injection, schedule: Q01DX005 (ip), vehicle: saline with Tween-80
[6] = dose: 50.0 mg/kg/injection, schedule: Q01DX005 (ip), vehicle: saline with Tween-80
[7] = dose: 200.0 mg/kg/injection, schedule: Q01DX005 (ip), vehicle: saline with Tween-80
[8] = dose: 240.0 mg/kg/injection, schedule: Q01DX005 (ip), vehicle: saline with Tween-80
[9] = dose: 200.0 mg/kg/injection, schedule: Q01DX009 (ip), vehicle: Klucel (hydroxypropylcellulose) (HPC)

SMILES: CC(=O)OC1CC2CCC3C(CCC4(C)C3CC([N+]3(C)CCCCC3)C4OC(C)=O)C2(C)CC1[N+]1(C)CCCCC1 (stereo not given)
- survivor count (dose: 0.1 mg/kg/injection, schedule: Q01DX009 (ip), vehicle: saline): 5 of 6
- survivor count (dose: 0.2 mg/kg/injection, schedule: Q01DX009 (ip), vehicle: saline): 1 of 6
- survivor count (dose: 0.4 mg/kg/injection, schedule: Q01DX009 (ip), vehicle: saline): 0 of 6
- survivor count (dose: 0.75 mg/kg/injection, schedule: Q01DX009 (ip), vehicle: saline): 0 of 6
- survivor count (dose: 1.5 mg/kg/injection, schedule: Q01DX009 (ip), vehicle: saline): 0 of 6
- survivor count (dose: 3.0 mg/kg/injection, schedule: Q01DX009 (ip), vehicle: saline): 0 of 6
- survivor count [1]: 0 of 6
- survivor count (dose: 25.0 mg/kg/injection, schedule: Q01DX009 (ip), vehicle: saline): 0 of 6
- survivor count (dose: 50.0 mg/kg/injection, schedule: Q01DX009 (ip), vehicle: saline): 0 of 6

SMILES: COCCn1c(=O)[nH]c(=O)c2c(Nc3ccccc3)snc21
- survivor count (dose: 25.0 mg/kg/injection, schedule: Q01DX009 (ip), vehicle: saline with Tween-80): 5 of 6
- survivor count [2]: 6 of 6
- T/C [3]: 140 % of control

SMILES: O=C1C=CC(=O)N1c1ccc(N2C(=O)C=CC2=O)cc1
- survivor count (dose: 12.5 mg/kg/injection, schedule: Q01DX009 (ip), vehicle: distilled water + Tween-80): 3 of 6
- survivor count (dose: 25.0 mg/kg/injection, schedule: Q01DX009 (ip), vehicle: distilled water + Tween-80): 0 of 6 and 2 of 6

SMILES: CC(=O)c1cc(I)c(O)c2ncccc12
- survivor count [2]: 0 of 6

SMILES: O=C(Nc1ccc(Oc2ccc(Cl)cc2)c(Cl)c1)c1cc(I)cc(I)c1O
- survivor count (dose: 100.0 mg/kg/injection, schedule: Q01DX005 (ip), vehicle: Klucel (hydroxypropylcellulose) (HPC)): 1 of 6
- survivor count [4]: 0 of 6

SMILES: N#CC(c1ccccc1)c1cnccn1 (stereo not given)
- survivor count [5]: 0 of 6

SMILES: CCCN=c1c2c(OC)c(OC)ccc2cc2n1CCc1cc3c(cc1-2)OCO3
- survivor count (dose: 20.0 mg/kg/injection, schedule: Q01DX009 (ip), vehicle: water): 0 of 6

SMILES: CC(C)(C=O)COC1OCN(C(C)(C)C)CC1(C)C (stereo not given)
- T/C (dose: 200.0 mg/kg/injection, schedule: Q01DX009 (ip), vehicle: saline with Tween-80): 131 % of control

SMILES: CC(=O)Nc1cc2cccnc2sc1=O
- survivor count (dose: 50.0 mg/kg/injection, schedule: Q01DX005 (ip), vehicle: Klucel (hydroxypropylcellulose) (HPC)): 6 of 6

SMILES: C=CC1(OC)CC1CO (stereo not given)
- survivor count (dose: 400.0 mg/kg/injection, schedule: Q01DX001 (ip), vehicle: Klucel (hydroxypropylcellulose) (HPC)): 2 of 6

SMILES: OCCSC(=S)Nc1ccc(Cl)c(Cl)c1
- survivor count [3]: 4 of 6

SMILES: Cn1cc(C2NC(=O)c3ccccc3N2)c2ccccc21 (stereo not given)
- T/C (dose: 133.0 mg/kg/injection, schedule: Q01DX005 (ip), vehicle: Klucel (hydroxypropylcellulose) (HPC)): 139 % of control
- T/C [4]: 145 and 146 % of control
- survivor count (dose: 400.0 mg/kg/injection, schedule: Q01DX005 (ip), vehicle: Klucel (hydroxypropylcellulose) (HPC)): 5 of 5

SMILES: COc1ccc(Cc2cc(N=NC(N)=O)c(OC)cc2O)cc1
- survivor count [6]: 6 of 6
- survivor count [5]: 6 of 6
- survivor count [7]: 6 of 6

SMILES: C[P+](C)(C)C
- survivor count [8]: 0 of 6

SMILES: CCCCNP(=O)(N1CC1C)N1CC1C (stereo not given)
- T/C [1]: 131 % of control
- T/C (dose: 18.75 mg/kg/injection, schedule: Q01DX009 (ip), vehicle: saline): 145 % of control
- T/C (dose: 25.0 mg/kg/injection, schedule: Q04DX003 (ip), vehicle: saline): 127 % of control
- T/C (dose: 50.0 mg/kg/injection, schedule: Q04DX003 (ip), vehicle: saline): 145 % of control
- survivor count (dose: 100.0 mg/kg/injection, schedule: Q04DX003 (ip), vehicle: saline): 6 of 6

SMILES: O=C1OC(c2ccccc2)=C(Cl)C(Cc2ccccc2)(Cc2ccccc2)C1Cl (stereo not given)
- survivor count (dose: 100.0 mg/kg/injection, schedule: Q04DX002 (ip), vehicle: Klucel (hydroxypropylcellulose) (HPC)): 6 of 6
- survivor count (dose: 200.0 mg/kg/injection, schedule: Q04DX002 (ip), vehicle: Klucel (hydroxypropylcellulose) (HPC)): 6 of 6
- survivor count (dose: 400.0 mg/kg/injection, schedule: Q04DX002 (ip), vehicle: Klucel (hydroxypropylcellulose) (HPC)): 5 of 5

SMILES: CC(=O)NS(=O)(=O)c1ccc(N/N=C(\C#N)C(N)=O)cc1
- survivor count [4]: 2 of 5

SMILES: COc1ccc(Cc2c3cc(OC)c(OC)cc3cc(=O)n2C)cc1OC
- survivor count [9]: 1 of 6

SMILES: C=C(C)C(=O)OC1CC2(C)OC2CCC2(C)OC2C2OC(=O)C(=C)C12 (stereo not given)
- survivor count (dose: 80.0 mg/kg/injection, schedule: Q01DX005 (ip), vehicle: Klucel (hydroxypropylcellulose) (HPC)): 0 of 6

SMILES: C/C(N)=C\C#N
- survivor count (dose: 200.0 mg/kg/injection, schedule: Q04DX003 (ip), vehicle: saline with Tween-80): 0 of 6
- survivor count (dose: 400.0 mg/kg/injection, schedule: Q04DX003 (ip), vehicle: saline with Tween-80): 0 of 6

SMILES: COc1cccc2c1C(=O)c1c(O)c3c(c(O)c1C2=O)CC(O)(C(=O)CO)CC3OC1CC(NC(=O)C(F)(F)F)C(OC2CC(N)C(O)C(C)O2)C(C)O1 (stereo not given)
- T/C (dose: 6.25 mg/kg/injection, schedule: Q04DX003 (ip), vehicle: water): 125 % of control

SMILES: CCCC[N+](CC)(CC)CCCNC1=CC(=O)C(NCCC[N+](CC)(CC)CCCC)=CC1=O
- survivor count (dose: 1.56 mg/kg/injection, schedule: Q04DX002 (ip), vehicle: saline): 0 of 6
- survivor count (dose: 3.12 mg/kg/injection, schedule: Q04DX002 (ip), vehicle: saline): 0 of 6
- survivor count (dose: 6.25 mg/kg/injection, schedule: Q04DX002 (ip), vehicle: saline): 0 of 6
- survivor count (dose: 12.5 mg/kg/injection, schedule: Q04DX002 (ip), vehicle: saline): 0 of 6
- survivor count (dose: 25.0 mg/kg/injection, schedule: Q04DX002 (ip), vehicle: saline): 0 of 6
- survivor count (dose: 50.0 mg/kg/injection, schedule: Q04DX002 (ip), vehicle: saline): 0 of 6
- survivor count (dose: 100.0 mg/kg/injection, schedule: Q04DX002 (ip), vehicle: saline): 0 of 6

SMILES: [CH3][Ge]([CH3])[c]1ccccc1
- survivor count [3]: 0 of 6

SMILES: COc1cc(C(=O)c2cc3c(cc2C)OCO3)cc(OC)c1OC
- T/C (dose: 100.0 mg/kg/injection, schedule: Q01DX009 (ip), vehicle: Klucel (hydroxypropylcellulose) (HPC)): 145 % of control

SMILES: COc1cc(C(c2cc3c(cc2O)OCO3)N2CCCCC2)cc(OC)c1OC (stereo not given)
- T/C (dose: 120.0 mg/kg/injection, schedule: Q01DX005 (ip), vehicle: saline with Tween-80): 127 % of control
- T/C [8]: 125 and 127 % of control
- survivor count (dose: 480.0 mg/kg/injection, schedule: Q01DX005 (ip), vehicle: saline with Tween-80): 1 of 6

SMILES: Cc1cc(NC(=S)SCc2ccc3c(c2)OCO3)ccc1Br
- T/C (dose: 200.0 mg/kg/injection, schedule: Q01DX009 (ip), vehicle: Klucel (hydroxypropylcellulose) (HPC), evaluated on day 20): 127 % of control
- T/C (dose: 200.0 mg/kg/injection, schedule: Q01DX009 (ip), vehicle: Klucel (hydroxypropylcellulose) (HPC), evaluated on day 30): 127 % of control

SMILES: COc1ccc(Cl)c(C)c1C(=O)OC1CC(OC2C(O)CC(OC3CCCC4C3C=CC3CCCC/C=C/C5C=C(C(=O)O)C(C)CC56OC(=O)C(=C6O)OC(=O)C34C)OC2C)OC(C)C1O (stereo not given)
- survivor count [9]: 6 of 6

SMILES: O=C1C(=O)C(Cl)=C(Cl)C(Cl)=C1Cl
- survivor count (dose: 12.5 mg/kg/injection, schedule: Q01DX009 (ip), vehicle: saline with Tween-80): 5 of 6
- survivor count [2]: 6 of 6

SMILES: CCCCOC(=O)[C@@H]1O[C@H]2OC=C[C@H]21
- survivor count (dose: 25.0 mg/kg/injection, schedule: Q01DX005 (ip), vehicle: saline with Tween-80): 4 of 5
- survivor count [6]: 5 of 5
- survivor count [5]: 3 of 5
- survivor count [7]: 0 of 5
